In patent US20140170142A1 (AstraZeneca / MedImmune, published 2014):
Results are given in words; binding and its absence hold for the method and conditions named. Some entries that bind do so weakly or less than the wild type. Tags and fused reporters may be left off the sequences shown.

Molecular target: T1, mouse FcRn (mouse, UniProt Q61559 22-297; P01887 21-119, limits assumed)
T1 construct: also called mFcRn
T1 sequence (looked up): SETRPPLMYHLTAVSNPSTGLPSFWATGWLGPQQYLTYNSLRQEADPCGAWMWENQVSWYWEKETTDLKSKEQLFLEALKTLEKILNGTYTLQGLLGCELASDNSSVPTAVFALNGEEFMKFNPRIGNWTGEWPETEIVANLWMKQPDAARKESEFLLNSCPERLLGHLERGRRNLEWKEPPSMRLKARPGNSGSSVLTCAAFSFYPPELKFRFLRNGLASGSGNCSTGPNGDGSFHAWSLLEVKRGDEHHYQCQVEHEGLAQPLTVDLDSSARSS
T1 sequence (b2m, looked up): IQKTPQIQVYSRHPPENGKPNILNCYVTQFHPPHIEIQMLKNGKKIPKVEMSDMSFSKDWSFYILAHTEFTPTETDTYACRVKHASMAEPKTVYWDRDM
Experiment: SPR (BIAcore 3000), CM5 chip, pH 6.0

B1: ABD-TM-Fc: triple knockout mutations of ABD residues S18A; T20A and Y21A (Fc fusion)
chain: LAEAKVLANRELDKYGVADAYANLINNAKTVEGVKALIDEILAALPGAEPRGPTIKPCPPCKCPAPNLLGGPSVFIFPPKIKDVLMISLSPIVTCVVVDVSEDDPDVQISWFVNNVEVHTAQTQTHREDYNSTLRVVSALPIQHQDWMSGKEFKCKVNNKDLPAPIERTISKPKGSVRAPQVYVLPPPEEEMTKKQVTLTCMVTDFMPEDIYVEWTNNGKTELNYKNTEPVLDSDGSYFMYSKLRVEKKNWVERNSYSCSVVHEGLHNHHTTKSFSRTPGKGGGGSEQKLISEEDLGGGGSHHHHHH
notes: T20A/Y20A; Y21A)
binding: binds
